Results from publication PMC7450096, “Structural mechanism for replication origin binding and remodeling by a metazoan origin recognition complex and its co-loader Cdc6” (Nature Communications, 2020).
No constants are given. Whether binding was seen depends on the method and setting. Some results given as binding are weak or reduced against the parent protein; the word gives no strength. For some of these results: Where a sequence is shown, tags or fusion partners need not be part of it.

T1: Drosophila Mcm4, N-terminally MBP-tagged (Drosophila) (UniProt Q26454)
T1 sequence: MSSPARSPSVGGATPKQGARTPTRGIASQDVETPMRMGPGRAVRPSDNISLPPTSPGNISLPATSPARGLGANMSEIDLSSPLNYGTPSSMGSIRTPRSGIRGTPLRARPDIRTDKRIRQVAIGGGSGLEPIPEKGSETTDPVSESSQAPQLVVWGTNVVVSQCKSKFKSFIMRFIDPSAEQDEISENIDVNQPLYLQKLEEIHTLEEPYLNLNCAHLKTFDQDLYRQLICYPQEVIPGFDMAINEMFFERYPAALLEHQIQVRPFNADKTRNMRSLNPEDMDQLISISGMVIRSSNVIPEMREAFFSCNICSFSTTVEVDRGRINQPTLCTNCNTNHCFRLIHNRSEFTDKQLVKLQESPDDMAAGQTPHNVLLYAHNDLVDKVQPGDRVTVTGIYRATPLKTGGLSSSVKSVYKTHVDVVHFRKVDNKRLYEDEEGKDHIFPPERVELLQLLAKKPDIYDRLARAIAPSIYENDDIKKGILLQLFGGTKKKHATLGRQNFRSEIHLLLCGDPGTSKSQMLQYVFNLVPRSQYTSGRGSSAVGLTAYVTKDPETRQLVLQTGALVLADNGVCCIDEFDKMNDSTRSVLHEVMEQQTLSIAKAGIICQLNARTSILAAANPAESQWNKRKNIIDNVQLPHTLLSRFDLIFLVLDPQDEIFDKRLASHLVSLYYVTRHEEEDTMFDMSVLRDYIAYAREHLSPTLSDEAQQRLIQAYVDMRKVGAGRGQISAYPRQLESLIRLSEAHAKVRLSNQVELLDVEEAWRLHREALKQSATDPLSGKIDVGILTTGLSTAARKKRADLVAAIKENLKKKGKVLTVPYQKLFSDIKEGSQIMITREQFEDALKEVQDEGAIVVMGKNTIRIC

T2: Drosophila Mcm7, N-terminally 6xHis-tagged (Drosophila) (UniProt Q9XYU0)
T2 sequence: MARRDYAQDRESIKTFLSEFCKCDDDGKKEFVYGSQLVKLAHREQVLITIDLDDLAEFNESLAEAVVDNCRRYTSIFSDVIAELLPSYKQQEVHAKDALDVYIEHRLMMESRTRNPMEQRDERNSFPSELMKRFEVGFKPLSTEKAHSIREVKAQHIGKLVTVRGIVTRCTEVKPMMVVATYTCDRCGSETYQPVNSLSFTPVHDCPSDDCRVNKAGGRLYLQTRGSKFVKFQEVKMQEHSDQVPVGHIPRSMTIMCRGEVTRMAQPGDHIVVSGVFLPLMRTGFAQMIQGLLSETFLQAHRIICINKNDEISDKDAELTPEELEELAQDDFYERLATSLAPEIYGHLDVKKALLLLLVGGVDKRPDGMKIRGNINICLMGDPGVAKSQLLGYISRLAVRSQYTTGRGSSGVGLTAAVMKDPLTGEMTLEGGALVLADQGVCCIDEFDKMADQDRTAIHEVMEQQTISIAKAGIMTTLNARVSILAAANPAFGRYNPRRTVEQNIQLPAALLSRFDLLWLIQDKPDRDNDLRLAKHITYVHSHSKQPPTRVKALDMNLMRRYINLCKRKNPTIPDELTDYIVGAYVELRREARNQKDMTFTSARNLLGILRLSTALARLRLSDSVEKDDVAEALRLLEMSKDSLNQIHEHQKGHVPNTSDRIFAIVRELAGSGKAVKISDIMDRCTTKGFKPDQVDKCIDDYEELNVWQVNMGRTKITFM

T3: Drosophila Orc4, subunit of DmORC^Orc1ΔN (Drosophila) (UniProt Q9W102)
T3 sequence: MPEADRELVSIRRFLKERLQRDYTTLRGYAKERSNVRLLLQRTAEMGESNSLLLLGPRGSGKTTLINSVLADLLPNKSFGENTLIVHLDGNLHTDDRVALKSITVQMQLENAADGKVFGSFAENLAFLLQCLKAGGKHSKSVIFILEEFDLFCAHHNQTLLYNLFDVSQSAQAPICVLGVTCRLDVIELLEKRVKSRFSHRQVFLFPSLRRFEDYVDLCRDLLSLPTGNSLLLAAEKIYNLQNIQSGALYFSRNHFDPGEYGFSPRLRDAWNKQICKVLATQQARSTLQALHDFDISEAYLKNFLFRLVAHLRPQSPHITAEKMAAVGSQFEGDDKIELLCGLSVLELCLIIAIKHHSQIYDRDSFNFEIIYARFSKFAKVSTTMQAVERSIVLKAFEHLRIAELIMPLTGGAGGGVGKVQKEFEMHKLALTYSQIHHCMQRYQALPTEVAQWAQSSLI

B1: Drosophila Mcm2 (protein, UniProt P49735 1-887)
chain: MDNPSSPPPNTPSDAAERRDLRAAMTSPVGDFEPFENEDEILGDQTVRDEAEEEDGEELFGDNMENDYRPMPELDHYDPALLDDEDDFSEMSQGDRFAAESEMRRRDRAAGIHRDDRDLGFGQSDDEDDVGPRAKRRAGEKAAVGEVEDTEMVESIENLEDTKGHSTKEWVSMLGPRTEIANRFQSFLRTFVDERGAYTYRDRIRRMCEQNMSSFVVSYTDLANKEHVLAYFLPEAPFQMLEIFDKVAKDMVLSIFPTYERVTTEIHVRISELPLIEELRTFRKLHLNQLVRTLGVVTATTGVLPQLSVIKYDCVKCGYVLGPFVQSQNTEIKPGSCPECQSTGPFSINMEQTLYRNYQKITLQESPGRIPAGRIPRSKDVILLADLCDQCKPGDELEVTGIYTNNYDGSLNTDQGFPVFATVIIANHVVVKDSKQVVQSLTDEDIATIQKLSKDPRIVERVVASMAPSIYGHDYIKRALALALFGGESKNPGEKHKVRGDINLLICGDPGTAKSQFLKYTEKVAPRAVFTTGQGASAVGLTAYVRRNPVSREWTLEAGALVLADQGVCLIDEFDKMNDQDRTSIHEAMEQQSISISKAGIVTSLQARCTVIAAANPIGGRYDPSMTFSENVNLSEPILSRFDVLCVVKDEFDPMQDQQLAKFVVHSHMKHHPSEEEQPELEEPQLKTVDEIPQDLLRQYIVYAKENIRPKLTNIDEDKIAKMYAQLRQESFATGSLPITVRHIESVIRMSEAHARMHLRENVMEADVSMAIRMMLESFIEAQKFSVMKKMRSTFQKYLSFQKDHSELLFFILRQLTLDQLAYIRCKDGPGATHVEIMERDLIERAKQLDIVNLKPFYESDLFRTNGFSYDPKRRIILQIVVDGNTA
B2: Drosophila Mcm5 (protein, UniProt Q9VGW6 1-733)
chain: MEGFDDAGVFFSDNFGGDNQQDAQINLQAVKKKYKEFIRTFNEENFFYKYRDTLKRNYLNGRYFLEIEMEDLVGFDETLADKLNKQPTEHLEIFEEAAREVADEITAPRPEHEEHMHDIQILLSSNANPTNIRQLKSDCVSKLVKIAGIIVAASGISAKATRMSIQCLSCSTVIPNLKVNPGLEGYALPRKCNTEQAGRPKCPLDPFFIMPDKCKCVDFQTLKLQELPDFVPQGEIPRHLQLFCDRSLCERVVPGNRVLIQGIYSIRKVGKPSRRDGREKAVVGVRAPYMRVVGITVDSEGAGAISRYSNITSDEEEHFRRMAASGDIYERLSQSLAPSIFGSRDIKKAITCMLFGGSRKRLPDGLCRRGDINVLLLGDPGTAKSQLLKFVEKVAPIAVYTSGKGSSAAGLTASVMKDPQTRNFVMEGGAMVLADGGVVCIDEFDKMREDDRVAIHEAMEQQTISIAKAGITTTLNSRCSVLAAANSIFGRWDDTKGEENIDFMPTILSRFDMIFIVKDIHDESRDITLAKHIINVHLSSNKSAPSEPAEGEISLSTFKKYIHYCRTHCGPRLSEAAGEKLKSRYVLMRSGAGQQEKASDKRLSIPITVRQLEAVIRISESLAKIRLQPFATDEHVNEALRLFQVSTLDAAMTGSLAGAEGFTTEEDQETLNRIEKQLKRRFAIGSQVSEQNILQDFLRQKYEERTVMKVIHTMIRRGELQHRMQRKMLYRIC
B3: Drosophila Mcm6 (protein, UniProt Q9V461 1-817)
chain: MDVADAQVGQLRVKDEVGIRAQKLFQDFLEEFKEDGEIKYTRPAASLESPDRCTLEVSFEDVEKYDQNLATAIIEEYYHIYPFLCQSVSNYVKDRIGLKTQKDCYVAFTEVPTRHKVRDLTTSKIGTLIRISGQVVRTHPVHPELVSGVFMCLDCQTEIRNVEQQFKFTNPTICRNPVCSNRKRFMLDVEKSLFLDFQKIRIQETQAELPRGCIPRAVEIILRSELVETVQAGDRYDFTGTLIVVPDVSVLAGVGTRAENSSRHKPGEGMDGVTGLKALGMRELNYRMAFLACSVQATTARFGGTDLPMSEVTAEDMKKQMTDAEWHKIYEMSKDRNLYQNLISSLFPSIYGNDEVKRGILLQQFGGVAKTTTEKTSLRGDINVCIVGDPSTAKSQFLKQVSDFSPRAIYTSGKASSAAGLTAAVVRDEESFDFVIEAGALMLADNGICCIDEFDKMDQRDQVAIHEAMEQQTISIARAGVRATLNARTSILAAANPINGRYDRSKSLQQNIQLSAPIMSRFDLFFILVDECNEVVDYAIARKIVDLHSNIEESVERAYTREEVLRYVTFARQFKPVISQEAGHMLVENYGHLRQRDTGTSGRSTWRITVRQLESMIRLSEAMAKLECSNRVLERHVKEAFRLLNKSIIRVEQPDIHLDDDEGLDMDDGIQHDIDMENNGAAANVDENNGMDTSASGAVQKKKFTLSFEDYKNLSTMLVLHMRAEEARCEVEGNDTGIKRSNVVTWYLEQVADQIESEDELISRKNLIEKLIDRLIYHDQVIIPLKTSTLKPRIQVQKDFVEEDDPLLVVHPNYVVE
B4: Drosophila Mcm3 (protein, UniProt Q9XYU1 1-819)
chain: MAHEGEQFIKDIQREYVDFLDDEEDQGIYAGHVKDMIAEKSKRLIVNVNDLKRKNPQRALGLLSNAADEQLAFGRALKEYASTVDPGYAKMHEDLFVGFEGCFGNRHVTPRSLTSIYLGNMVCVEGIVTKVSLIRPKVVRSVHYCPNTRKVMERKYTDLTSFEAVPSGAAYPTKDEDGNLLETEYGLSVYKDHQTLTIQEMPEKAPAGQLPRSVDIVCDDDLVDRCKPGDRVQIVGSYRCLPGKRGGYTSGTFRTVLLANNISLLSKESNLDISREDIMLCKKLAKNNDIFELLSKSLAPSIHGHAYVKQAILCLLLGGVEKILPNGTRLRGDINVLLIGDPSVAKSQLLRYVLNTAPRAIPTTGRGSSGVGLTAAVTTDQETGERRLEAGAMVLADRGVVCIDEFDKMSDIDRTAIHEVMEQGRVTISKAGIHASLNARCSVLAAANPVYGRYDQYKTPMENIGLQDSLLSRFDLLFVMLDVIDSDVDQMISDHVVRMHRYRNPKEADGEPLSMGSSYADSLSFVSSSEEKKDTEVYEKYDALLHGKSRQRHEKILSVEFMRKYIHIAKCMKPKLGEQACEAIANEYSRLRSQEAVETDVARTQPITARTLETLIRLSTAHARARMSKSVTIDDAHAAIELVQFAYFKKVLDKDRPSKRRRNSGSDAEDDNGEASSQRSPSRRSKRTRTATVGADSDEEDIEPPQPDAGDLTRRETRRSLPARSVAMLMASPSSEEQSVATSTTEPAIISDARLGEFKNNLQRLFREAREQSLALARITTAINVGSQEPFTAGEIEAAVHRMTEDNQIMVADDIVFLI
B5: Drosophila Orc1 lacking the N-terminal 439 residues (Orc1ΔN), subunit of DmORC^Orc1ΔN (domain or fragment, UniProt O16810 440-924)
chain: PRRSIHLSNIVEQRVFEDDEIISTPKRGRSKKTVQDNDEDYSPKKSVQKTPTRTRRSSTTTKTATTPSKGITTATATPMTPSQKMKKIRAGELSPSMQQRTDLPAKDSSKSELQLAREQLHVSVVPKSLPCREREFENIYAFLEGKIQDQCGGCMYVSGVPGTGKTATVTGVIRTLQRMAKQNELPAFEYLEINGMRLTEPRQAYVQIYKQLTGKTVSWEQAHALLEKRFTTPAPRRVTTVLLVDELDILCNRRQDVVYNLLDWPTKSAAKLVVVTIANTMDLPERLLMGKVTSRLGLTRLTFQPYSHKQLQEIVTARLGGSETFKGEAVQLVARKVAAVSGDARRALDICRRATEIADTAAVKCVTMLHVQQALAEMIASAKVQAIRNCSRMEQIFLQAIAAEVTRTGVEETTFMGVYQQVETIAAFMGVTFPPPGRALRLCSKLGAERLIISEHSRNDLFQKILLNVSADDIHYALRVEEMVN

Tests used:
[1] = target: T1, Drosophila Mcm4, N-terminally MBP-tagged (Drosophila); test: co-purification (nickel affinity, amylose, gel filtration); Mcm2–7 subunits co-expressed in Hi5 cells; 6xHis-Mcm7 on HisTrap, then MBP-Mcm4 on amylose, TEV cleavage, Superose 6; 4 °C; subunits verified by SDS-PAGE and mass spectrometry
[2] = target: T2, Drosophila Mcm7, N-terminally 6xHis-tagged (Drosophila); test: as above
[3] = target: T3, Drosophila Orc4, subunit of DmORC^Orc1ΔN (Drosophila); test: cryo-EM structure; DmORC^Orc1ΔN (2.5 μM), duplex DNA (3 μM; 60 bp AT-rich, 84 bp AT-rich, 60 bp poly(dA·dT) or 60 bp GC-rich) and DmCdc6ΔN (6.8 μM) assembled at 25 °C in 25 mM HEPES-KOH pH 7.6, 250 mM potassium acetate, 10 mM magnesium acetate, 1 mM DTT, 1 mM ATP; purified by gel filtration; both purified

Binder | binding [1] | binding [2] | binding [3]
B1 | binds | binds | –
B2 | binds | binds | –
B3 | – | binds | –
B4 | binds | – | –
B5 | – | – | binds
